Patent US20210255195A1, “HIGH PRECISION SPECTRAL FRET ASSAYS” (Regents of the University of Minnesota, priority 2017, published 2021)

Protein sequences, listed by entry. Tags and fused reporters are not part of them. Residues count along the entry.
UniProt P04191, 1-994 isoform P04191-2: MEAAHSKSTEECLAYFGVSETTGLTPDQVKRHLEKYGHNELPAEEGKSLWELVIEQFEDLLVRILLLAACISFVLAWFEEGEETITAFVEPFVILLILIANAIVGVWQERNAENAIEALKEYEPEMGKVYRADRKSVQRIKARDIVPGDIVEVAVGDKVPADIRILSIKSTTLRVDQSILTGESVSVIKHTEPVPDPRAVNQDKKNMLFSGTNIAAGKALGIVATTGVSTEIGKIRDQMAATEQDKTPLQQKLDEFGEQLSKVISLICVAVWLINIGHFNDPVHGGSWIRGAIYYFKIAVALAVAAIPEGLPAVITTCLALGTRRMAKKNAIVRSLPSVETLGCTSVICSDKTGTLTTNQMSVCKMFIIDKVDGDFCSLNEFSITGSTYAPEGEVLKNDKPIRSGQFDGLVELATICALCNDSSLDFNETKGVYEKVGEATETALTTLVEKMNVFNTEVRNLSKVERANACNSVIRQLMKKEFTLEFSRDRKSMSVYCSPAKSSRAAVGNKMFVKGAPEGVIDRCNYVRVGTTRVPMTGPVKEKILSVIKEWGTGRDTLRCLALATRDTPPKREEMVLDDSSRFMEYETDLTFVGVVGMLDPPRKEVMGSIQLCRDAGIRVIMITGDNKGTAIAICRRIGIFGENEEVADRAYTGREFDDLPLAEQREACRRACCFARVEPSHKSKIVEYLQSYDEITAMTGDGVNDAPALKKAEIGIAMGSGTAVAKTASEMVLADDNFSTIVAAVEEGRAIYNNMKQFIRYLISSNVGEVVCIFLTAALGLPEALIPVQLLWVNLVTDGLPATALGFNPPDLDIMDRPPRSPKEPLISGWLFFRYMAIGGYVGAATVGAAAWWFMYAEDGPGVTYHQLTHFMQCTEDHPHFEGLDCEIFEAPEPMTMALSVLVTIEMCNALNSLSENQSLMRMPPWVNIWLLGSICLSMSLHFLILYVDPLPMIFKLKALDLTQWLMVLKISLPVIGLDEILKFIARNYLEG

Legend:
[1] = molecular target: SERCA (Oryctolagus cuniculus, UniProt P04191); conditions: 10 μM free calcium, 20 minute incubation
Excerpt: An enzyme-coupled, NADH-linked ATPase assay was used to measure SERCA ATPase activity in 96-well microplates.

[2] = molecular target: two-color SERCA (2CS) biosensor (SERCA2a) (UniProt P16615); test: 2CS FRET biosensor in living HEK293 cells, spectral mode (spectral unmixing plate reader); format: cell-based, human; conditions: NCC screen, reproducible and dose-dependent FRET decrease
Protocol: HEK293 cells were maintained in phenol-red-free DMEM from Gibco (Waltham, Mass.) supplemented with 2 mM GlutaMAX (Gibco), 10% fetal bovine serum (FBS) from Atlanta Biologicals (Laweranceville, Ga.), and 1 IU/mL penicillin/streptomycin (Gibco) and grown at 37° C. with 5% CO2. Stable clones expressing the FRET biosensors and corresponding donor- and acceptor-labeled control cell lines were established as described previously. Briefly, cells were transfected with the recombinant DNA following established protocols lipofectaimine 3000 from Invitrogen (Carlsbad, Calif.). […] The stability of each clone was assessed by flow cytometry and confocal microscopy (data not shown). […] Cell viability was assessed using trypan blue. […]
In its spectral unmixing plate reader (SUPR) mode, the instrument provides direct high-throughput detection of the complete fluorescence emission spectrum, (emission vs wavelength), with excitation provided by a 473 nm continuous wave laser. Spectra are recorded using a grating-based fiber optic input spectrograph equipped with linear-array CCD detector (Sony ILX511B). The recorded wavelength range in these experiments spanned the entire visible spectrum, but only the 400-700 nm range was used in the data analysis. In lifetime mode, the full nanosecond-resolved fluorescence emission waveform is acquired following excitation with a 473 nm pulsed microchip laser. […]

SMILES	Ki ([1]; eight-point curves in triplicate)	inhibition of SERCA ATPase activity ([1]; maximal)	2CS FRET hit identification [2]
Clc1ccc(COC(Cn2ccnc2)c2ccc(Cl)cc2Cl)c(Cl)c1 (stereo not drawn) [miconazole]	2.8 µM	92.4%	
Clc1ccc(CO/N=C(\Cn2ccnc2)c2ccc(Cl)cc2Cl)c(Cl)c1 [oxiconazole]			hits
